Measurements reported in PubChem BioAssay AID1159578 (Peter MacCallum Cancer Centre, 2015)
The whole screen tested about 18,000 reagents; below is a part drawn at random. Over the whole deposit, about 1,030 (5.7%) got an active call. 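Inactive calls also include pools with fewer than 3300 nuclei, whose migration was not assessed.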 The raw values are shown without normalisation. Further read-outs or replicates are left out here. No sequences are given here.

Assay: 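Genome-wide hunt for genes controlling movement of lymphatic endothelial cells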 (primary screen)
System: human lymphatic endothelial cells
Reagents: siRNA pool against human genes, 40 nM
Timing: 48 h after transfection
Measurement: 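High-content imaging of dye-stained cells in a scratch assay measures filled wound area and nuclei per well; duplicate means given as ratio to mock and robust z-score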
Scale: migration robust z-score: higher = faster migration into the scratch; nuclei per well: higher = more cells in the well
Hit rule: 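Pools averaging fewer than 3300 nuclei are never called; remaining pools count as changed when migration robust z lies outside -2 to 2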
Meaning of the calls: active = migration changed; inactive = no migration change, or too few cells

| gene | PubChem SID | migration robust z-score | migration class with cell-count check | nuclei per well, duplicate mean | Call |
| --- | --- | --- | --- | --- | --- |
| OR2T35 (GeneID 403244) | SID255365825 | 1.12 | migration z between -2 and 2; enough cells | 5570 | inactive |
| CHUK (GeneID 1147) | SID255348931 | -1.42 | migration z between -2 and 2; enough cells | 4527 | inactive |
| NEU1 (GeneID 4758) | SID255351206 | -0.08 | migration z between -2 and 2; enough cells | 5646 | inactive |
| DHH (GeneID 50846) | SID255357376 | -0.6 | migration z between -2 and 2; enough cells | 5022 | inactive |
| QTRT2 (GeneID 79691) | SID255360391 | 1.34 | migration z between -2 and 2; enough cells | 5851 | inactive |
| STARD3NL (GeneID 83930) | SID255361134 | 1.6 | migration z between -2 and 2; enough cells | 7016 | inactive |
| ZNF518A (GeneID 9849) | SID255354606 | 1.02 | migration z between -2 and 2; enough cells | 5848 | inactive |
| TBL1Y (GeneID 90665) | SID255361852 | -1.15 | migration z between -2 and 2; enough cells | 5584 | inactive |
| ARPIN (GeneID 348110) | SID255365241 | -3.07 | under 3300 nuclei; migration not judged | 1708 | inactive |
| PTGS2 (GeneID 5743) | SID255351932 | -0.34 | migration z between -2 and 2; enough cells | 5276 | inactive |
| MELTF (GeneID 4241) | SID255350948 | 0.73 | migration z between -2 and 2; enough cells | 5662 | inactive |
| POLR2G (GeneID 5436) | SID255351687 | -0.75 | migration z between -2 and 2; enough cells | 4924 | inactive |
| IPPK (GeneID 64768) | SID255359985 | -3.14 | under 3300 nuclei; migration not judged | 3060 | inactive |
| C2CD4A (GeneID 145741) | SID255363256 | -1.98 | migration z between -2 and 2; enough cells | 5846 | inactive |
| SPI1 (GeneID 6688) | SID255352593 | -0.06 | migration z between -2 and 2; enough cells | 5995 | inactive |
| INTS1 (GeneID 26173) | SID255356705 | -2.67 | migration z below -2; enough cells | 5780 | active |
| ACVR1 (GeneID 90) | SID255348164 | -1.33 | migration z between -2 and 2; enough cells | 3704 | inactive |
| ADCK5 (GeneID 203054) | SID255364110 | 0.08 | migration z between -2 and 2; enough cells | 5622 | inactive |
| ACOT4 (GeneID 122970) | SID255362569 | 1.79 | migration z between -2 and 2; enough cells | 5112 | inactive |
| PAX1 (GeneID 5075) | SID255351420 | -1.02 | migration z between -2 and 2; enough cells | 5088 | inactive |
| OR2Y1 (GeneID 134083) | SID255362958 | -1.96 | migration z between -2 and 2; enough cells | 4110 | inactive |
| PRRX1 (GeneID 5396) | SID255351663 | -0.21 | migration z between -2 and 2; enough cells | 6263 | inactive |
| CCPG1 (GeneID 9236) | SID255354135 | 0.69 | migration z between -2 and 2; enough cells | 5068 | inactive |

Laid out differently: entries from further up.
gene	PubChem SID	migration robust z-score	migration class with cell-count check	nuclei per well, duplicate mean	Call
NEU1 (GeneID 4758)	SID255351206	-0.08	migration z between -2 and 2; enough cells	5646	inactive
DHH (GeneID 50846)	SID255357376	-0.6	migration z between -2 and 2; enough cells	5022	inactive
